Data as given in US20210015819A1, “METHODS FOR TREATMENT OF CANCERS WITH EGFR ACTIVATING MUTATIONS” (Board of Regents, The University of Texas System, priority 2018, published 2021).
For at least one compound, name, drawing or mass did not settle the structure.

How the values were obtained:
[1] = test system: MDA-011 cells; assay: MTS and clonogenic assays in patient-derived cell line; format: cell-based; details: EGFR L858R, mesenchymal phenotype
[2] = test system: YUL0019 cells; assay: Drug sensitivity of parental YUL0019 cells (FIG. 8); format: cell-based; details: EGFR exon 20 insertion mutation
[3] = test system: EGFR TKI resistant cells; details: PI staining and flow cytometry

CCc1cnn2c(NCc3ccc[n+]([O-])c3)cc(N3CCCC[C@H]3CCO)nc12 [Dinaciclib]
Sensitivity of MDA-011 cells [1]: sensitive
Sensitivity of parental YUL0019 cells [2]: highly sensitive
Percentage of sub-G1 cells [3]: significantly increases
